Measurements published in the supplement of paper PMC10849652.
The list shows a part of the results.

By UniProt entry, the sequences of proteins in these tests, tags left out. Where a name states a change or a piece, a line headed by the entry shows the natural chain unless it says otherwise.
UniProt O95857: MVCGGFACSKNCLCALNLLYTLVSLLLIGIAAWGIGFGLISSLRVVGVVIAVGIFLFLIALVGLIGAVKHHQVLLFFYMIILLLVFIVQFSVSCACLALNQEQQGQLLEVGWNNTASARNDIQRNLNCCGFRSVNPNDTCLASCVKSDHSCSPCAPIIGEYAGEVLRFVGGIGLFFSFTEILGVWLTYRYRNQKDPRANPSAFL
UniProt Q8WWH5: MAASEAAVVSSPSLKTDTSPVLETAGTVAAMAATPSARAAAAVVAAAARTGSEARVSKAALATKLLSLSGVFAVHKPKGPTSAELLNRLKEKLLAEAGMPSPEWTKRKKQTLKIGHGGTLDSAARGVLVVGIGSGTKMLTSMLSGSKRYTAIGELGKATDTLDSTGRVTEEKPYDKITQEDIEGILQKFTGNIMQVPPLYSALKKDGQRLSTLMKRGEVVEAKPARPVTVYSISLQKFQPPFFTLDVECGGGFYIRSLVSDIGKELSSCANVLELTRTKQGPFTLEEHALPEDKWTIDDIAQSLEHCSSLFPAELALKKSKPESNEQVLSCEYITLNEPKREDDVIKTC
UniProt Q6NXR4: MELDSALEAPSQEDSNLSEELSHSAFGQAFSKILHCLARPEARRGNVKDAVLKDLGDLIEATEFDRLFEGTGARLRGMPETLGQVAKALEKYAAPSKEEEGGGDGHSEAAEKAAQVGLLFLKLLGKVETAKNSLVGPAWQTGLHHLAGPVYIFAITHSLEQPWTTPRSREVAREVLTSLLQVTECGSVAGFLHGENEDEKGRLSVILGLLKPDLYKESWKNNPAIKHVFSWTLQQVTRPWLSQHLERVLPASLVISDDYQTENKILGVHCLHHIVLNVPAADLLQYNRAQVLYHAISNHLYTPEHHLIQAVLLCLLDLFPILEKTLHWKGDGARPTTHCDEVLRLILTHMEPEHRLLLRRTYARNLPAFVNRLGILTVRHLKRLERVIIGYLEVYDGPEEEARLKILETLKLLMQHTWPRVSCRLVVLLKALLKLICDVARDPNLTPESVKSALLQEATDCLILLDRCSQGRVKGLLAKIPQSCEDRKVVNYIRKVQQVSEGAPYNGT
UniProt Q7Z4G4: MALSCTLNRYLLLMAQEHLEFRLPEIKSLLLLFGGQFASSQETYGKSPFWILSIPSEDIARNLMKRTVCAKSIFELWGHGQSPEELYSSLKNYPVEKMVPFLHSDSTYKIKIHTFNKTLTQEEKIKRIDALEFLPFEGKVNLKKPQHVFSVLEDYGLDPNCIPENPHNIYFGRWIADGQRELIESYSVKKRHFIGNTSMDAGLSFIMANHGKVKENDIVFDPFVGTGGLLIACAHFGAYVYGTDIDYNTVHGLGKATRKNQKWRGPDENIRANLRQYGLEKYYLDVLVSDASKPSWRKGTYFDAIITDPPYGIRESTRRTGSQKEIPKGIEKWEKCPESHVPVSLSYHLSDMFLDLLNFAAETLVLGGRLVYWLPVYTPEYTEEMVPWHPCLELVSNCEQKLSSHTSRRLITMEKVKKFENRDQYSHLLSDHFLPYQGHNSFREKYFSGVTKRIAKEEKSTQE
UniProt Q9C037: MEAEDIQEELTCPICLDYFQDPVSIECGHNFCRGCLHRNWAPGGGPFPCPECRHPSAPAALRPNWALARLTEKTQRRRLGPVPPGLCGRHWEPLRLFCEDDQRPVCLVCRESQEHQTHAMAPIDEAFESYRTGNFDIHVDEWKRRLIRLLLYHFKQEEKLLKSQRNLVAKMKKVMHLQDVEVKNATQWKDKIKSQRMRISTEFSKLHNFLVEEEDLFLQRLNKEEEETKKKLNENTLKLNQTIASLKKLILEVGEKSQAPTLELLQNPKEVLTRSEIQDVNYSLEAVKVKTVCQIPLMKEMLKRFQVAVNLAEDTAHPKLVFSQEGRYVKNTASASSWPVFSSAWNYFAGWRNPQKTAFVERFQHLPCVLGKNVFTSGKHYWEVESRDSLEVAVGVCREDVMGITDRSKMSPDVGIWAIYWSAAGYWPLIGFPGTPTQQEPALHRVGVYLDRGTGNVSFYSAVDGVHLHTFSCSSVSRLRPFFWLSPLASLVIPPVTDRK
UniProt Q15654: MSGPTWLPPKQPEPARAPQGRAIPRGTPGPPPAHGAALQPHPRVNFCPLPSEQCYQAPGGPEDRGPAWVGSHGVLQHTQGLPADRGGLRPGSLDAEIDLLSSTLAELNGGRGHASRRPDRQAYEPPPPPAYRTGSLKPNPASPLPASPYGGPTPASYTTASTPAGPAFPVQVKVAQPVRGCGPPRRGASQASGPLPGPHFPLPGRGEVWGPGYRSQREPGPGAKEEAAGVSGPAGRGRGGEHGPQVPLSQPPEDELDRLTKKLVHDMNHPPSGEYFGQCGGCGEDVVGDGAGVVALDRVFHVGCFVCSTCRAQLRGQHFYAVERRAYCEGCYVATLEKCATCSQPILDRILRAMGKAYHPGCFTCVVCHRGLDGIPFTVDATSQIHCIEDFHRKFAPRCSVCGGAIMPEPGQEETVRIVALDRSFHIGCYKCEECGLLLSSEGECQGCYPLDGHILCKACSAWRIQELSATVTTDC
UniProt Q96FX7: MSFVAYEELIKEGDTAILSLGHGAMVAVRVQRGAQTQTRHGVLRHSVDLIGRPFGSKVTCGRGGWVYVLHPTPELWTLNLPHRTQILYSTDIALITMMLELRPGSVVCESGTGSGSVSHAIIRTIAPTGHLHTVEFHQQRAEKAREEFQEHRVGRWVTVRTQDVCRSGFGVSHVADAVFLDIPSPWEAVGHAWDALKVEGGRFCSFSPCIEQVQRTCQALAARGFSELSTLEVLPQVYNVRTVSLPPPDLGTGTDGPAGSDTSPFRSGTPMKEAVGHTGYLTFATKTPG
UniProt Q5BVD1: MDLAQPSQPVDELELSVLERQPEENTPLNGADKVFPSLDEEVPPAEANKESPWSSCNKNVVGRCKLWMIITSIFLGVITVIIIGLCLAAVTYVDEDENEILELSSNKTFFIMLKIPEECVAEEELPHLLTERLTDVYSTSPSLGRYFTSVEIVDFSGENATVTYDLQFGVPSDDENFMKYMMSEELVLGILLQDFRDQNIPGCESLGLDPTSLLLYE
UniProt Q8NG68: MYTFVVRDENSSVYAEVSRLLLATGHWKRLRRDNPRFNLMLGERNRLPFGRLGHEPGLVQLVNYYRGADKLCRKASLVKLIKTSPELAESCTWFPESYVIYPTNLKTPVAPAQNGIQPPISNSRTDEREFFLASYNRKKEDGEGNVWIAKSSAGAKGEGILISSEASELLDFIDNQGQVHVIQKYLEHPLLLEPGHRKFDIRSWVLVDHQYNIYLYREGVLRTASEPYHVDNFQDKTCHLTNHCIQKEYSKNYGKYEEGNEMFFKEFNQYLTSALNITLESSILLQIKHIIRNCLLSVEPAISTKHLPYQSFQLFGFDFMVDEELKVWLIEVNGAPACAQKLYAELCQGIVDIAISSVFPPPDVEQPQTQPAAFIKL
UniProt Q9Y4K3: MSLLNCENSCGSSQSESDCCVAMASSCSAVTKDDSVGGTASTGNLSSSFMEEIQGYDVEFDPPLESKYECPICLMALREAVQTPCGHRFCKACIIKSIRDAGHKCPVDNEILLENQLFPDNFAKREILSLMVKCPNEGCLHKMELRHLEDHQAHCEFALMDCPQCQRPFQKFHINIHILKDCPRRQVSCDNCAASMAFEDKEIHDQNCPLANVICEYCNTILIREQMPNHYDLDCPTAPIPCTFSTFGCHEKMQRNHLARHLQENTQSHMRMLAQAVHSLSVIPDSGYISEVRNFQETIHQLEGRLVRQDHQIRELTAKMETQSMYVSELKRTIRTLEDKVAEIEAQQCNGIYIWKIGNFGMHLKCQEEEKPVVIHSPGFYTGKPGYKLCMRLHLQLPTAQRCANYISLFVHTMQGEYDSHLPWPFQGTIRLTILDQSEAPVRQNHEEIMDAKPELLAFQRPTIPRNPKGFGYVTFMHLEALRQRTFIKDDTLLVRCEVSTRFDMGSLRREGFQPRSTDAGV
UniProt Q96Q11: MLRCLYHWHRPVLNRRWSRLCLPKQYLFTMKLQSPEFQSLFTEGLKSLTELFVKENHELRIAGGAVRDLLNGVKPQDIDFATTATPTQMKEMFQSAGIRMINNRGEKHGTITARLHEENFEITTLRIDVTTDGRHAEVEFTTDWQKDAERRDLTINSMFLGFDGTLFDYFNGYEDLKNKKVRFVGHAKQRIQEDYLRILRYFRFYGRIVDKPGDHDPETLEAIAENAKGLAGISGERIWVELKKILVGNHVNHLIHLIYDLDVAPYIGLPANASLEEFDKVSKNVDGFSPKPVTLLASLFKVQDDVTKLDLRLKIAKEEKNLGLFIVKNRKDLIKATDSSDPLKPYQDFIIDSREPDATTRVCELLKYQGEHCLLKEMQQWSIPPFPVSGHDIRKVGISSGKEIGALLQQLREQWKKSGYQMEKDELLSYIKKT
UniProt Q9BRZ2: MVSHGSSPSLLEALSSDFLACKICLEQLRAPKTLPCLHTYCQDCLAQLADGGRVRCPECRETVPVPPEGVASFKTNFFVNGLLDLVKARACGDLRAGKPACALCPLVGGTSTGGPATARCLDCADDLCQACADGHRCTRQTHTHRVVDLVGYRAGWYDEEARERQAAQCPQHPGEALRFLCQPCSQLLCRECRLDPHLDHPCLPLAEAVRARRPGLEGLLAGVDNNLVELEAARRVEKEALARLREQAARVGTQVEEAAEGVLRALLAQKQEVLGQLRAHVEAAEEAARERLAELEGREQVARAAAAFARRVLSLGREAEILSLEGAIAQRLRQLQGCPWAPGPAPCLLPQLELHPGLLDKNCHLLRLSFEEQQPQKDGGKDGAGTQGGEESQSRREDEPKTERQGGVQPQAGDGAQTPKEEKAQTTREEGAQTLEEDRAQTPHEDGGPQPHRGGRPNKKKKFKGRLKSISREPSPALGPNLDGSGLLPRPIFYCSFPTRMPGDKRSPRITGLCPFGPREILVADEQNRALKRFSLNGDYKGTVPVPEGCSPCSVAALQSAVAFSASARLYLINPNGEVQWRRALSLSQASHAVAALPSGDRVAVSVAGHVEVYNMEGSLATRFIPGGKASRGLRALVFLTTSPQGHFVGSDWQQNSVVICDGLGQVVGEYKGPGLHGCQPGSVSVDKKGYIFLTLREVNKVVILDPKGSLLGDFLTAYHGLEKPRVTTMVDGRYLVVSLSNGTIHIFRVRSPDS
UniProt Q99598: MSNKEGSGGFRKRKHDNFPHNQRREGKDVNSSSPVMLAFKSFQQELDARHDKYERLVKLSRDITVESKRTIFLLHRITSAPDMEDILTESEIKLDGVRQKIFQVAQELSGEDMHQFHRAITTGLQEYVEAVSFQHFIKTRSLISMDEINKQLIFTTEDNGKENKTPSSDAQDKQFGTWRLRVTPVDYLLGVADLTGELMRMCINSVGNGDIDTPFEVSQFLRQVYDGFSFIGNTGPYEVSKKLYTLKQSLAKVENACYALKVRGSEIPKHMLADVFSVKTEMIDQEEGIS
UniProt P33981: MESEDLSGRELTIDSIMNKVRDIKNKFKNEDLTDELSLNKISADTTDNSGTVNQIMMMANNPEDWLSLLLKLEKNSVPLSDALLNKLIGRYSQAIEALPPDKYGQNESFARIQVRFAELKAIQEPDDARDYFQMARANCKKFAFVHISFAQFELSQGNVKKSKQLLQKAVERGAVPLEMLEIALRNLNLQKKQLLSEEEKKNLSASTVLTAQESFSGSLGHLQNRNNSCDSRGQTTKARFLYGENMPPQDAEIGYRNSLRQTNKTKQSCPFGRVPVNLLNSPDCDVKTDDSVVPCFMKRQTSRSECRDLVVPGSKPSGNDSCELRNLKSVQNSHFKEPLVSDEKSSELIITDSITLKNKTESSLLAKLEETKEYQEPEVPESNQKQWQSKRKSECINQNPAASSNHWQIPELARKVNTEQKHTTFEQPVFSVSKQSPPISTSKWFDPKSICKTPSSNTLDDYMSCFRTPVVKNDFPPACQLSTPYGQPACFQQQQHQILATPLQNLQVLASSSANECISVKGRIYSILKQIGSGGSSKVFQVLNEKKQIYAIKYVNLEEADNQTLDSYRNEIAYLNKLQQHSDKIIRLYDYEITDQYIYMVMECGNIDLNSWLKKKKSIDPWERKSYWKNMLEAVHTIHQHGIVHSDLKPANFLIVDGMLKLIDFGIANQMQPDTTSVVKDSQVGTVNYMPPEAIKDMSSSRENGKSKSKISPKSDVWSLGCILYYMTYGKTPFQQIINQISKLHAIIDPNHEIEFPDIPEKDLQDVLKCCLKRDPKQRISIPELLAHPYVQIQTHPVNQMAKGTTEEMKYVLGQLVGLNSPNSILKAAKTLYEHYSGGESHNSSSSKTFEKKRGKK
UniProt Q9NX07: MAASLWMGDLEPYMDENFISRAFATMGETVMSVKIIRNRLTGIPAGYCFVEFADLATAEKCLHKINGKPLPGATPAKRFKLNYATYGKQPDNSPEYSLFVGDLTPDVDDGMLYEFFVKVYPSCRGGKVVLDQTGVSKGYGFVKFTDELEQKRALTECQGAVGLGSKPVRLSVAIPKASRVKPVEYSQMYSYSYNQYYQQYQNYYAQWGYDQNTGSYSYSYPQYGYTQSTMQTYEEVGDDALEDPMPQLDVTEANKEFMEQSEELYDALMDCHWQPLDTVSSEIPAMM

Columns and labels:
Assay in all cases: log2 fold change, soluble protein after heating vs DMSO (PISA); higher = thermal stabilisation; K562 lysate, 10 uM; active = over 0.2 and 3.5 SD of the protein, either way, in both replicates (recomputed)
[1] = compound: C1=CC=C(C=C1)[C@H](COC2=CC3=C(C=C2)NC(=O)N3)NC(=O)C4=CC=CN(C4=O)CC5=CC(=C(C=C5)F)F
Method in brief: (§1)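 Thermal stability, expressed as log-two fold change relative to solvent controls, is given from duplicates. Crude K562 extract in PBS pH 7.4 with 1 mM MgCl2, at 1 mg/mL protein, was treated with 10 μM compound for 30 min and heated in aliquots for 3 min across 48°C-58°C. After pooling, adjustment to 0.5% NP-40 at 4°C and centrifugation at 21,000xg for 90 min, supernatant protein was measured by TMTpro 16plex LC-MS/MS with channel sums equalised.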

[2] = compound: CC1=C(SC2=C1C(=N[C@H](C3=NN=C(N32)C)CC(=O)N)C4=CC=C(C=C4)Cl)C
Method in brief: as §1

[3] = compound: CC1=C2C(=CC=C1)N=C(N(C2=O)C3=CC=CC=C3C)CN4C=NC5=C(N=CN=C54)N
Method in brief: as §1

[4] = compound: Cc1sc2c(c1C)C(c1ccc(Cl)cc1)=N[C@@H](CC(=O)OC(C)(C)C)c1nnc(C)n1-2
Method in brief: as §1

[5] = compound: c1ccc([C@@H]2C[C@H]2NC2CCNCC2)cc1
Method in brief: as §1

Measured: log2 fold change

TSPAN13 (UniProt O95857)
inactive: [1] 0.076 | [2] 0.025 | [3] -0.048 | [4] 0.187 | [5] -0.131

TRUB1 (UniProt Q8WWH5)
inactive: [1] -0.033 | [2] 0.061 | [3] -0.014 | [4] -0.042 | [5] 0

TTI2 (UniProt Q6NXR4)
inactive: [1] -0.044 | [2] 0.009 | [3] 0.033 | [4] -0.035 | [5] 0.024

TRMT11 (UniProt Q7Z4G4)
inactive: [1] 0 | [2] 0.049 | [3] 0 | [4] 0.039 | [5] 0.021

TRMT112 (UniProt Q9UI30)
inactive: [1] -0.039 | [2] 0.017 | [3] 0.067 | [4] 0.037 | [5] -0.012

Two neighbouring entries out of the list so far:
TSPAN13 (UniProt O95857)
inactive: [1] 0.076 | [2] 0.025 | [3] -0.048 | [4] 0.187 | [5] -0.131

TRUB1 (UniProt Q8WWH5)
inactive: [1] -0.033 | [2] 0.061 | [3] -0.014 | [4] -0.042 | [5] 0

(list continues)

TRIM4 (UniProt Q9C037)
inactive: [1] -0.058 | [2] 0.143 | [3] 0.146 | [4] -0.019 | [5] 0.06

TSC1 (UniProt Q92574)
inactive: [1] -0.006 | [2] -0.094 | [3] 0.067 | [4] -0.005 | [5] 0.036

TRIP6 (UniProt Q15654)
inactive: [1] 0.02 | [2] 0.029 | [3] -0.01 | [4] 0.014 | [5] -0.027

TRMT61A (UniProt Q96FX7)
inactive: [1] 0.042 | [2] -0.071 | [3] 0.005 | [4] -0.074 | [5] 0.007

TRIP11 (UniProt Q15643)
inactive: [1] 0.057 | [2] -0.002 | [3] 0.025 | [4] -0.013 | [5] -0.031

TTMP isoform 3 (UniProt Q5BVD1)
inactive: [1] -0.051 | [2] 0.091 | [3] 0.135 | [4] -0.148 | [5] -0.498

TTC27 (UniProt Q6P3X3)
inactive: [1] -0.039 | [2] -0.021 | [3] 0.028 | [4] -0.019 | [5] 0.032

TTC17 (UniProt Q96AE7)
inactive: [1] -0.025 | [2] -0.062 | [3] -0.034 | [4] -0.057 | [5] -0.046

TTL (UniProt Q8NG68)
inactive: [1] 0.004 | [2] -0.029 | [3] 0.145 | [4] 0.014 | [5] 0.104

TTF2 (UniProt Q9UNY4)
inactive: [1] -0.092 | [2] 0.029 | [3] 0.003 | [4] 0.127 | [5] 0.003

TRMU (UniProt O75648)
inactive: [1] 0.068 | [2] -0.038 | [3] 0.008 | [4] 0.015 | [5] -0.06

TRAF6 (UniProt Q9Y4K3)
inactive: [1] 0.052 | [2] -0.003 | [3] -0.023 | [4] 0.009 | [5] -0.01

TRAPPC3 (UniProt O43617)
inactive: [1] -0.008 | [2] -0.032 | [3] -0.027 | [4] 0.01 | [5] 0.016

TRMT10C (UniProt Q7L0Y3)
inactive: [1] 0.047 | [2] -0.018 | [3] 0.035 | [4] 0.006 | [5] 0.049

TRNT1 (UniProt Q96Q11)
inactive: [1] 0.061 | [2] -0.004 | [3] -0.04 | [4] 0.045 | [5] 0.031

TRAPPC9 isoform 2 (UniProt Q96Q05)
inactive: [1] 0.001 | [2] 0.05 | [3] 0 | [4] 0.055 | [5] -0.042

TRIM56 (UniProt Q9BRZ2)
inactive: [1] -0.057 | [2] -0.009 | [3] 0.076 | [4] 0.003 | [5] 0.099

TSNAX (UniProt Q99598)
inactive: [1] 0.019 | [2] 0.014 | [3] 0 | [4] -0.036 | [5] 0.007

TTK (UniProt P33981)
inactive: [1] -0.016 | [2] -0.003 | [3] 0.068 | [4] 0.02 | [5] 0.003

TRNAU1AP (UniProt Q9NX07)
inactive: [1] -0.068 | [2] -0.008 | [3] 0.195 | [4] -0.025 | [5] -0.048
